Laboratory results as given in PubChem BioAssay AID1439 (NMMLSC, 2008).
Screen size: about 220,000 compounds; about 770 (0.35%) were called active. The inconclusive results got no clear call from the source; some entries with a clear call stand among them for comparison. No stated cut-off is given here; in the data, active means binding response below about 49% or above about 150%; inconclusive means no clear call, values can overlap the other calls; inactive means in between.

By UniProt entry, the sequences of proteins in these tests, tags left out.
UniProt P09471, whole entry, looked up: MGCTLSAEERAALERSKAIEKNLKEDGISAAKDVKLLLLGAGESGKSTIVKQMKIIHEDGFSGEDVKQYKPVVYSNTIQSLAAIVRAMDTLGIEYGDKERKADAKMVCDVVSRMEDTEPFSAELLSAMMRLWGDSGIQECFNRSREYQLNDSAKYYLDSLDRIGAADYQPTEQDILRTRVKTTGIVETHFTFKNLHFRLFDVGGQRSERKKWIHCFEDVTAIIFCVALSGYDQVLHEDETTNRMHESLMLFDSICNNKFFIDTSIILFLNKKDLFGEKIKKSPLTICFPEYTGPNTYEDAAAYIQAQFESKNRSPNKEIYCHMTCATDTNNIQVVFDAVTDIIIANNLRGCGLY

These compounds were tested against Guanine nucleotide-binding protein G(o) subunit alpha (Homo sapiens) (UniProt P09471) (assay: RGS7-Galphao binding modulators, primary screen, biochemical, multiplexed bead flow cytometry (AID 1439;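 further: fluorescent Galphao held in activated GDP-AlF4 state binding bead-coupled RGS7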)). Settings: at 10 µM, actives lie on both sides.
With `Cc1ccc(C)c(Cn2c(C)nc3c(sc(=S)n3-c3ccccc3)c2=O)c1` the binding response (% of control) was inactive: 101%. With `Cc1ccc(NC(=O)c2sc3nc(CCl)[nH]c(=O)c3c2C)c(C)c1` the binding response (% of control) was inactive: 103%. For `Cc1cc(N2CCN(c3ccc(F)cc3)CC2)n2ncnc2n1`, the binding response (% of control) was inconclusive: 118%. For `CCCS(=O)(=O)NCCc1cc2ccc(C)cc2[nH]c1=O`, the binding response (% of control) was inactive: 102%. `CCn1c(SCC(=O)Nc2nccc(C)n2)nc2ccccc21` was tested, and the binding response (% of control) was inconclusive: 108%. With `O=C(N/N=C/c1cccnc1)C(=O)N1CCCCCC1` the binding response (% of control) was inconclusive: 116%. `CC(=O)Nc1ccc(S(=O)(=O)N2CCSC2c2ccc(Cl)cc2)cc1` (stereo not drawn) was tested, and the binding response (% of control) was inactive: 100%. In the case of `C=CCN(C(=O)CNC(=O)c1ccco1)C(C(=O)NC1CCCCC1)c1ccc(OC)cc1OC` (stereo not drawn), the binding response (% of control) is reported as inactive: 102%. `CCOC(=O)C1(Cc2ccccc2C(F)(F)F)CCN(Cc2ccon2)CC1` was tested, and the binding response (% of control) was inconclusive: 87.2%. `N/C(Cc1nc(-c2ccc(Cl)cc2)cs1)=N/O` was tested, and the binding response (% of control) was inconclusive: 136%. For `COC/C=C/C1=CC2=CC(=O)C(C)(OC(=O)c3cnc4ccccc4n3)C(=O)C2=CN1C(CO)CO` (stereo not drawn), the binding response (% of control) was inconclusive: 76.8%. In the case of `COc1ccc(NC(=O)Cn2nnc3sc4c(c3c2=O)CC(C)(C)OC4)cc1`, the binding response (% of control) is reported as inconclusive: 112%. In the case of `O=C(Nc1ccc(S(=O)(=O)Nc2ncccn2)cc1)C1=NN(c2ccccc2)C(=O)CC1`, the binding response (% of control) is reported as inconclusive: 83.6%. For `COc1cc(O)c(C(CCN2CCCC(C)C2)c2cc(OC)c(OC)c(OC)c2)c(OC)c1` (stereo not drawn), the binding response (% of control) was inconclusive: 112%. For `COc1cc(SC)ccc1C(=O)N(Cc1ccccc1)c1ccccn1`, the binding response (% of control) was inconclusive: 5%. For `Cc1nc(C(=O)NCC(=O)c2ccccc2)c(C(F)(F)F)o1`, the binding response (% of control) was inconclusive: 85.7%. In the case of `COc1ccc(S(=O)(=O)N2CCOC2CNC(=O)C(=O)NCc2ccco2)cc1OC` (stereo not drawn), the binding response (% of control) is reported as inconclusive: 23.6%. `CC1CCCC(NC(=O)COC(=O)c2sc3ccccc3c2Cl)C1C` (stereo not drawn) was tested, and the binding response (% of control) was active: -6.92%. `CCOc1ccc(-c2c(C(=O)N/N=C/c3ccc(O)cc3)nnn2-c2nonc2N)cc1` was tested, and the binding response (% of control) was inconclusive: 105%. For `COc1ccc(Cl)cc1N1C(=O)CC(N2CCc3ccccc32)C1=O` (stereo not drawn), the binding response (% of control) was inactive: 88.1%. `O=C1c2ccccc2C(=O)N1c1ccc(Cc2ccncc2)cc1` was tested, and the binding response (% of control) was inconclusive: 111%. In the case of `CC(C)OCCCN1C=C2C(=O)C(C)(OC(=O)CCc3ccccc3)C(=O)C=C2C=C1c1ccc(C#N)cc1` (stereo not drawn), the binding response (% of control) is reported as inconclusive: 87.5%. For `CC(C)c1csc(CN2CCC(CO)(Cc3cccc(F)c3)CC2)n1`, the binding response (% of control) was inactive: 92.5%. `CN(c1ccccc1)c1nc(N)c([N+](=O)[O-])c(N2CCOCC2)n1` was tested, and the binding response (% of control) was inconclusive: 71%. For `COc1cccc2[nH]c3c(=O)n(CCCN4CCOCC4)cnc3c12`, the binding response (% of control) was inconclusive: 86.6%. For `COc1ccc(S(=O)(=O)N2CCN(c3ccccn3)CC2)cc1[N+](=O)[O-]`, the binding response (% of control) was inconclusive: 21.3%. In the case of `CN(CC(=O)O)S(=O)(=O)c1ccc2c(c1)n(C)c(=O)c(=O)n2C`, the binding response (% of control) is reported as inconclusive: 104%. With `Cc1ccc(OCCn2c3ccccc3n3nc(C)c(=O)nc23)cc1` the binding response (% of control) was inconclusive: 120%. With `COc1cc(CCC(=O)OCC(=O)NC2CCCC(C)C2C)cc(OC)c1OC` (stereo not drawn) the binding response (% of control) was inconclusive: 105%. In the case of `O=C(CSc1nc2c(c(=O)n1-c1ccccc1)SCC2)NCC1CCCO1` (stereo not drawn), the binding response (% of control) is reported as inconclusive: 115%. `COc1ccc(NC(=O)CC23CC4CC(C2)CC(n2nnc(C)n2)(C4)C3)cc1` was tested, and the binding response (% of control) was inactive: 93.9%. With `CC(=O)Nc1sc(N/N=C/c2ccc(O)cc2)nc1-c1ccc(C)cc1` the binding response (% of control) was inconclusive: 88.6%. With `CC(Oc1ccc(F)cc1)c1ccnc2nc(/N=C/N(C)C)nn12` (stereo not drawn) the binding response (% of control) was inconclusive: 117%. For `CCc1noc(C)c1C(=O)Nc1nnc(C2CCCCC2)s1`, the binding response (% of control) was inactive: 99.9%. With `O=C(NCCCCNC(=O)C1CCCC1)C1CCCC1` the binding response (% of control) was inactive: 98.9%. With `C=CCSc1ncnc2c1oc1nc3c(cc12)COC(C)(C)C3` the binding response (% of control) was inconclusive: 120%. In the case of `CC(C)(C)C(=O)Nc1cccc(-c2ncon2)c1`, the binding response (% of control) is reported as inconclusive: 72.7%. In the case of `CCOc1ccc(/C=C/C(=O)CCC(=O)O)cc1`, the binding response (% of control) is reported as inactive: 104%. In the case of `CC(C)/C=N/Nc1nc2c(c(=O)n(C)c(=O)n2C)n1C`, the binding response (% of control) is reported as inconclusive: -59.2%. In the case of `Cc1cc(C)c(N)c(C(=O)O)c1`, the binding response (% of control) is reported as inconclusive: 96.1%. For `Cn1nc(C(=O)N2CCc3ccccc32)c2ccccc2c1=O`, the binding response (% of control) was inconclusive: 77.5%. For `COc1cccc2cc(C(=O)N3CCCCC3C)c(=O)oc12` (stereo not drawn), the binding response (% of control) was inactive: 110%. In the case of `Cc1ccc(OC(=O)C2c3ccccc3Oc3ccccc32)cc1C`, the binding response (% of control) is reported as inactive: 98.4%. For `CCc1ccc(C(=O)/C=C/Nc2ccc(S(=O)(=O)Nc3cnc4ccccc4n3)cc2)cc1`, the binding response (% of control) was inconclusive: 91.6%. For `Clc1c(-c2ccccc2)nnn1-c1ccccc1`, the binding response (% of control) was inactive: 92.3%. With `O=C(c1cc(-c2ccncc2)nc2ccc(Br)cc12)N1CCN(Cc2ccc3c(c2)OCO3)CC1` the binding response (% of control) was inconclusive: 89.3%. For `COc1ccccc1C(=O)NCc1ccccn1`, the binding response (% of control) was inactive: 104%. In the case of `O=C1CNC(=S)N1CCOc1ccccc1`, the binding response (% of control) is reported as inconclusive: 140%. `O=C1CC(N2CCN(S(=O)(=O)c3ccccc3)CC2)C(=O)N1c1ccccc1` (stereo not drawn) was tested, and the binding response (% of control) was inconclusive: 107%. In the case of `O=C(CSc1nc(O)c(Cc2ccccc2)c(=O)[nH]1)N1CCOCC1`, the binding response (% of control) is reported as inconclusive: 91.7%. With `CC(=O)c1ccc(N2CCN(C(=O)/C=C/c3ccc(S(=O)(=O)N4CCOCC4)cc3)CC2)cc1` the binding response (% of control) was inconclusive: 75.1%. With `O=C(/C=C/c1ccco1)Nc1scc(-c2ccccc2)c1C(=O)O` the binding response (% of control) was inconclusive: 101%. With `CCOC(=O)c1cnn2c1[nH]c(=O)c1ccccc12` the binding response (% of control) was inactive: 124%. In the case of `O=C(CSc1nc2ncccc2[nH]1)c1cccc([N+](=O)[O-])c1`, the binding response (% of control) is reported as inactive: 105%. In the case of `c1ccc(CSc2nnc(-c3ccco3)n2Cc2ccco2)cc1`, the binding response (% of control) is reported as inactive: 102%. With `CC1=[N+](C)c2c(ccc3cccnc23)C1(C)C` the binding response (% of control) was inactive: 83.6%. In the case of `CC(C)c1nnc(NC(=O)Cn2nc(-c3ccc4c(c3)OCCO4)ccc2=O)s1`, the binding response (% of control) is reported as inactive: 101%. With `COc1cccc(C2c3[nH]c4ccccc4c3CCN2Cc2cnn(C)c2)c1` (stereo not drawn) the binding response (% of control) was inconclusive: 198%.
